Results taken from PMC8037668.

Columns and labels:
Test in all cases: two-hybrid; ZmFLZ25 against the 14 Arabidopsis ABA receptors in yeast; bait and prey not stated for this experiment
PYL12 (Arabidopsis) = target: T1, PYL12 (Arabidopsis) (UniProt Q9FJ49)
T1 sequence: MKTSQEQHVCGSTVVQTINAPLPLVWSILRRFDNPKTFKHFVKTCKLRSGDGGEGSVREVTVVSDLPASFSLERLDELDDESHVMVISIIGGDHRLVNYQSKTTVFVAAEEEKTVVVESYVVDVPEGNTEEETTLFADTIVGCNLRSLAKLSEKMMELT

PYL8 (Arabidopsis) = target: T2, PYL8 (Arabidopsis) (UniProt Q9FGM1)
T2 sequence: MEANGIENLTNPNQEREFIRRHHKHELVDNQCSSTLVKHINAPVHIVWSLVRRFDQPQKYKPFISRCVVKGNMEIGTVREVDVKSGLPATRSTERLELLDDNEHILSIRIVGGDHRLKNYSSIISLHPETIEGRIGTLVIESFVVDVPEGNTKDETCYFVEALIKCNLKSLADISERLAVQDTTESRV

PYL4 (Arabidopsis) = target: T3, PYL4 (Arabidopsis) (UniProt O80920)
T3 sequence: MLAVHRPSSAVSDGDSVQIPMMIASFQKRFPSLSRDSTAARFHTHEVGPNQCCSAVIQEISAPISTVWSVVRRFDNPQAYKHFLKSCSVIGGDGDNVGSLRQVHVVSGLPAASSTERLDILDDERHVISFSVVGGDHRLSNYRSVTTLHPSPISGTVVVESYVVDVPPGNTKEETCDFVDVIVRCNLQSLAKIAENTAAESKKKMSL

PYL13 (Arabidopsis) = target: T4, PYL13 (Arabidopsis) (UniProt Q9SN51)
T4 sequence: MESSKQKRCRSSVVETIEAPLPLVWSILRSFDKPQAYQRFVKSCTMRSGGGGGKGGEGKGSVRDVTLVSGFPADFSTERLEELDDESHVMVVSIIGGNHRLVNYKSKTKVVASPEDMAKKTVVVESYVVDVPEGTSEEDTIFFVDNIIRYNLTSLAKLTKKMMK

Measured: binding

ZmFLZ25 (maize (Zea mays))
binds: all assays above

Results are given in words; binding and its absence hold for the method and conditions named. Binding can be weak; no strength is given.
